Assay results published in patent US20050181076A1, “Compositions and methods for treatment of diabetes” (priority 1999, published 2005).
For at least one compound, name, drawing or mass did not settle the structure.

Test: hypoglycemic effect, rutin versus luteolin
Conditions: in vivo

## C[C@@H]1O[C@@H](OC[C@H]2O[C@@H](Oc3c(-c4ccc(O)c(O)c4)oc4cc(O)cc(O)c4c3=O)[C@H](O)[C@@H](O)[C@@H]2O)[C@H](O)[C@H](O)[C@H]1O [rutin, reference compound]
  hypoglycemic effect: no hypoglycemic effect
